Laboratory results reported in patent US20250042956.

Legend:
Assay in all cases: binding assay
Settings in all cases: ChIP-seq peak motif enrichment (Homer), sequences similar to TTTAGGG; in vivo; protein in cells
[1] = target: T1, TRB1 (Arabidopsis thaliana) (UniProt Q8VWK4)
T1 sequence: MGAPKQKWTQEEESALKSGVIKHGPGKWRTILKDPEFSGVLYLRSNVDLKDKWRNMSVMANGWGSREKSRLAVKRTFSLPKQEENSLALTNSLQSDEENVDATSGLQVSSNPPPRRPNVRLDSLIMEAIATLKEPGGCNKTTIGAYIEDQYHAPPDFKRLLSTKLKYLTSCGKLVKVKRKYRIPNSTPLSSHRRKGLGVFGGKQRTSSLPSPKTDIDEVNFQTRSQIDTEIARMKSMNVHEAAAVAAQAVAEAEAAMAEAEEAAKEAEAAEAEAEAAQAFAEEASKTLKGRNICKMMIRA

[2] = target: T2, TRB2 (Arabidopsis thaliana) (UniProt Q9FJW5)
T2 sequence: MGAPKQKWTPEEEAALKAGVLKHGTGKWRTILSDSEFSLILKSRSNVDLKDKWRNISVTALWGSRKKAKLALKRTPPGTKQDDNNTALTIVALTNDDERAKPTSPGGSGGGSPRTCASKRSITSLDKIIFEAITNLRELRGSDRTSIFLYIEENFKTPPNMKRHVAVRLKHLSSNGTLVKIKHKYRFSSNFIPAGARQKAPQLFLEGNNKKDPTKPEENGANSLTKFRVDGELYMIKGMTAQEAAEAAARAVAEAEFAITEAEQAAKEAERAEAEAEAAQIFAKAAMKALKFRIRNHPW

[3] = target: T3, TRB3 (Arabidopsis thaliana) (UniProt Q9M2X3)
T3 sequence: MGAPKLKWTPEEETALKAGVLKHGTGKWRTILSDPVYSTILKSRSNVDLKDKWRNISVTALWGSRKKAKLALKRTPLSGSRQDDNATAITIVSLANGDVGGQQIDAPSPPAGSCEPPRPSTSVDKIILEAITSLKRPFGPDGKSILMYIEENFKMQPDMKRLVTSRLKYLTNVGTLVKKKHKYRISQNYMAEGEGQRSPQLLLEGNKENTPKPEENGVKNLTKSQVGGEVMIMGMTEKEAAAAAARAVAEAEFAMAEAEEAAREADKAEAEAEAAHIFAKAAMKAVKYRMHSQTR

Measured: binding result

TTTAGGG (double strand) [telobox / telomere repeat motif]
binds: all assays above

For at least one entry, the source does not settle the construct or the ends of the probe. Results from cells or extracts need not show a direct contact. Protein sequences can lack the tags named with them.
